From patent US20150118229A1, “JAK1 SELECTIVE INHIBITOR AND USES THEREOF” (ABBVIE INC., priority 2013, published 2015)
Like-named read-outs stand apart in the source and are kept apart here.

How the values were obtained:
Format in all cases: cell-based
IL-15 signaling = assay: Whole blood assay IL-15 pSTAT5 CD3+
Protocol: (§1) Finally, compound potency in whole blood was measured against IL-6 signaling and against signaling by the common gamma chain cytokines IL-7 and IL-15 (Table 1A). […].

EPO (Erythroid CFU) = assay: Erythroid bone marrow colony forming assay (EPO); conditions: read-out: Colony Formation EPO (Erythroid CFU)
IL-6 signaling = assay: Whole blood assay IL-6 pSTAT3 CD14+
Protocol: as §1

IL-7 signaling = assay: Whole blood assay IL-7 pSTAT5 CD3+

## C[C@@H]1CCN(C(=O)CC#N)C[C@@H]1N(C)c1ncnc2[nH]ccc12 [Tofacitinib, reference compound]
IL-15 signaling; read-out: IL-15 (pSTAT5, CD3+)
  IC50: 22 nM
IL-15 signaling; whole blood, read-out: IC50 IL-15 pSTAT5 CD3+
  IC50: 22 nM
EPO (Erythroid CFU)
  IC50: 800 nM
IL-6 signaling; read-out: IL-6 (pSTAT3, CD14+)
  IC50: 114 nM
IL-6 signaling; whole blood, read-out: IC50 IL-6 pSTAT3 CD14+
  IC50: 114 nM
IL-7 signaling
  IC50: 31 nM
